Measured values taken from US12686712B2, “Antibody, related use, pharmaceutical composition including method for diagnosing fungal infections, fungal infection diagnosis kit and method for treating fungal infections” (priority 2020, dated 2026).
Some entries share one result that the patent states for a list of compounds.

Tested on: C. neoformans
Test: Minimum inhibiting concentration (MIC) assay, alone or in association with AmB or FLC
Type: cell-based, Cryptococcus neoformans
Settings: AcM added to FLC 4 μg/ml, compared to FLC isolated at 4 μg/ml; p<0.01
Experimental: C. neoformans cells were cultivated in RPMI 1640 buffered with MOPS in pH 7 at 10^5 cell/well density in 96-well plates in 200 μl final volume. Systems were supplemented with AcM at concentration (25 to 0.05 μg/ml), AmB (1 to 0.1 lμg/ml) or FLC (8 to 2 μg/ml), alone or in association. After 48 hours of incubation at 37° C. under agitation, cells were suspended by pipetting for spectrophotometer reading at 592 nm wavelength.
AcMs fungicide activity was tested through CIM test. […] It was assessed if AcMs association with AmB or FLC would trigger antifungal effects in sub-inhibiting concentrations, thus 1 μg/ml concentrations of AmB and 4 and 2 μg/ml to FLC in combination with AcMs different concentrations. To assess whether there was combining effect of AcMs with drug, it was used as drug action base in isolate form.

B1: AF1/CC5: murine IgM monoclonal antibody against chitooligomers (chitotriose); VH SEQ ID NO: 19, VL SEQ ID NO: 20 (antibody, listed as Mus musculus, V domains shown)
VH: STGQVKLEESGGGLVQPGGSMKLSCAASGFTFSDAWMDWVRQSPEKGLEWVAEIRSKANNHATYYAESVKGRFTISRDDSKSSVYLQMNSLRAEDTGIYYCTRHRYDGFDYWGQGTTLTFP
VL: DYFLASQGEVTMTCSASSSISYMHWYQQKPGTSPKRWIYDTSKLASGVPARFSGSGSGTSYSLTISSMEAEDAATYYCHQRSSYPCTFGAGTKLELKRADAAPTVSLETKTS
**Q.** Which “AcM concentration with partial potentialized fungicide synergic effect with FLC” value does the source give for B1 here?
**A.** ≥ 3.2 µg/mL
